PubChem BioAssay AID1259254 – NCATS – 2017
Here is a random part of about 59,000 reagents tested. About 1,550 of them (2.6%) count as active. 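G2 share is only a proxy for re-replication; each gene was hit by three separate siRNAs, and active genes were retested.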 The numbers tell different reagents against one gene apart. Not all columns of the deposit are shown. The record does not give: the amount of reagent.

Aim: 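Gene knock-downs that lead to re-replication, shown by excess G2 DNA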 (primary screen)
Cells: human HCT116 colorectal cancer cells
Knock-down reagent: single siRNA against human genes
Time to read-out: 3 days
Detection: 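Imaged Hoechst DNA stain sorts each cell into a cycle phase by DNA amount; per plate, G2 fraction set to 0% for non-targeting and 100% for GMNN siRNA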
Reading the numbers: G2 robust z-score and G2 cells, % of GMNN control: higher = more G2 cells, more excess DNA replication
Active means: 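An siRNA counts as active if its G2 robust z-score lies at least 5 MADs above the screen median; here such calls match roughly 38% of GMNN control or more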

For VCAM1 #1 the deposit lists G2 robust z-score -0.407; G2 cells, % of GMNN control 0.104; inactive.
Against VCAM1 #2, the values are G2 robust z-score -0.0226; G2 cells, % of GMNN control 2.81; inactive.
VCAM1 #3 gave G2 robust z-score -0.276; G2 cells, % of GMNN control 1.03; inactive.
LOC649305 (retired record) #1 gave G2 robust z-score -0.689; G2 cells, % of GMNN control -1.88; inactive.
Silencing of LOC649305 (retired record) #2 resulted in: G2 robust z-score -1.14; G2 cells, % of GMNN control -5.03; inactive.
With knock-down of LOC649305 (retired record) #3, the record shows G2 robust z-score -0.765; G2 cells, % of GMNN control -2.41; inactive.
After knock-down of KCNG2 #1, the screen gave G2 robust z-score -0.224; G2 cells, % of GMNN control 1.39; inactive.
Depletion of KCNG2 #2 came out at: G2 robust z-score -0.984; G2 cells, % of GMNN control -3.96; inactive.
For KCNG2 #3, the entry reads G2 robust z-score 2.62; G2 cells, % of GMNN control 21.4; inactive.
Against TM4SF1 #1, the entry reads G2 robust z-score -0.337; G2 cells, % of GMNN control 0.595; inactive.
TM4SF1 #2 showed G2 robust z-score -0.325; G2 cells, % of GMNN control 0.684; inactive.
TM4SF1 #3 gave G2 robust z-score 0.238; G2 cells, % of GMNN control 4.64; inactive.
Silencing of MRPS23 #1 came out at: G2 robust z-score -0.166; G2 cells, % of GMNN control 1.8; inactive.
For MRPS23 #2, the entry reads G2 robust z-score -0.707; G2 cells, % of GMNN control -2.01; inactive.
Depletion of MRPS23 #3 resulted in: G2 robust z-score -1.36; G2 cells, % of GMNN control -6.6; inactive.
With knock-down of ERN1 #1 the results were G2 robust z-score -0.165; G2 cells, % of GMNN control 1.81; inactive.
For ERN1 #2 the deposit lists G2 robust z-score -0.144; G2 cells, % of GMNN control 1.95; inactive.
With knock-down of ERN1 #3 the results were G2 robust z-score 0.112; G2 cells, % of GMNN control 3.75; inactive.
For FAM174C #1, the values are G2 robust z-score 3.56; G2 cells, % of GMNN control 28; inactive.
FAM174C #2 showed G2 robust z-score -0.226; G2 cells, % of GMNN control 1.38; inactive.
After knock-down of FAM174C #3 the results were G2 robust z-score 0.25; G2 cells, % of GMNN control 4.73; inactive.
Silencing of RPP38-DT #1 resulted in: G2 robust z-score 0.955; G2 cells, % of GMNN control 9.69; inactive.
Silencing of RPP38-DT #2 gave: G2 robust z-score 0.147; G2 cells, % of GMNN control 4; inactive.
RPP38-DT #3 showed G2 robust z-score 0.728; G2 cells, % of GMNN control 8.09; inactive.

Laid out differently: results already given
| target | siRNA no. | G2 robust z-score | G2 cells, % of GMNN control | Call |
| --- | --- | --- | --- | --- |
| VCAM1 | 3 | -0.276 | 1.03 | inactive |
| LOC649305 (retired record) | 1 | -0.689 | -1.88 | inactive |
| LOC649305 (retired record) | 2 | -1.14 | -5.03 | inactive |
